The list shows a part of the results, in another mix than the full data. At the low end of the ranking the order means little.
Biological target: SPI1 (UniProt P17947)
Assay: DAPPL (digital affinity profiling via proximity ligation, sequencing)
Settings: 10 mM Tris-HCl pH 7.5, 50 mM NaCl, 1 mM DTT, 4% glycerol, room temperature, 30 min; GST-TFs on glutathione beads, 16-mer random dsDNA library, 0.1% …; high values mean tight binding; double strand, one strand shown; scale: fold enrichment (6-mer frequency, TF over GST control)

Row | Sequence | binding signal
1 | TATTGT | 1.19
2 | CTATAT | 1.32
3 | TTCACT | 1.33
4 | TGCCAA | 1.12
5 | CACAAT | 1.02
6 | TCGCTA | 1.04
7 | TTAGTA | 0.999
8 | TTGCAC | 1.26
9 | TCTGTC | 1.1
10 | CTAATG | 1.26
11 | ATCCCT | 1.16
12 | TGCTGT | 0.99
13 | CAGAAT | 0.965
14 | ACAGAT | 0.962
15 | TTGTCC | 1.17
16 | AATCAA | 1.15
17 | TAATGT | 1.06
18 | TATGTA | 1.3

Row | Sequence | binding signal
19 | CCGTCC | 1.21
20 | GATGGT | 0.989
21 | AAGAAT | 1.18
22 | TTTACT | 1.46
23 | ATCTGA | 0.969
24 | TCTTCT | 1.22
25 | CAAATA | 1.14
26 | ACGATC | 1
27 | TTTGCT | 1.21
28 | AACCTT | 1.26
29 | GGTCCT | 0.937
30 | CGAAGC | 1.2
31 | TATGGT | 1.28
32 | CATATA | 1.06
33 | TATTCT | 1.31
34 | CTTTCT | 1.67
35 | GACATC | 1.26

2 entries picked at random from the list so far, as already listed:
Row | Sequence | binding signal
33 | TATTCT | 1.31
26 | ACGATC | 1
